Results deposited as PubChem BioAssay AID504786 (Drosophila RNAi Screening Center, 2011)
Purpose: 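Knock-downs reducing HIF reporter induction by the iron chelator DFO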 (primary screen). Cell system: Drosophila S2 cells with a stable HIF luciferase reporter. Reagents: long dsRNA against Drosophila genes, about 0.2 µg dsRNA per well of a 384-well plate. Timing: three days of knock-down, then 20 h of DFO before reading. Conditions: desferrioxamine (DFO) at 100 µM, an iron chelator that mimics hypoxia, for 20 h. Measured: 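HIF reporter luminescence in cells given 100 µM DFO for 20 h, using the mouse ldh-a hypoxia-response element, scored as per-plate z-scores; higher means greater loss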. Scale: z-score: higher = stronger loss of HIF reporter signal.
The deposit covers about 21,000 reagents; shown is an unselected part of those with a known target gene and a result. 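Primary screen; positive scores mean lost reporter signal, so the sign may be inverted from the usual convention.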 Names joined by + are all predicted targets of the reagent.

gene | dsRNA | z-score, replicate 1 | z-score, replicate 2 | z-score, replicate 3 | z-score, replicate 4
Mp20 | DRSC07474 | -0.1 | -0.4 | – | –
Qsox3 | DRSC16096 | 0.4 | -0.2 | – | –
AdamTS-A | DRSC14992 | -0.3 | -0.1 | – | –
AdamTS-A | DRSC15966 | -0.3 | -0.3 | – | –
Sin1 | DRSC05965 | -0.3 | 0.1 | – | –
CG15332 | DRSC18015 | -0.3 | -0.6 | – | –
GlcAT-I | DRSC17307 | 0.2 | 0.1 | – | –
kibra | DRSC14533 | -0.8 | -1.4 | – | –
kibra | DRSC16257 | 3.6 | 4.7 | – | –
sha | DRSC06331 | -0.3 | -0.6 | – | –
Cen | DRSC02704 | -0.1 | -0.4 | – | –
RpS11 | DRSC07289 | -0.4 | -1 | 3.8 | 2
Tim17a2 | DRSC12252 | -0.3 | -0.5 | – | –
wal | DRSC07717 | -0.4 | -0.4 | – | –
pncr004:X (retired record) | DRSC19295 | -0.2 | -0.5 | – | –
Hmu | DRSC16705 | 0 | -0.1 | – | –
CG14232 | DRSC19588 | -0.3 | 0.1 | – | –
Rbp9 | DRSC00416 | -0.2 | -0.3 | – | –
Rbp9 | DRSC00779 | -0.4 | -0.6 | – | –
CG13215 | DRSC06337 | -0.1 | 0.3 | – | –
CG5177 | DRSC02824 | -0.2 | -0.1 | – | –
Gmppb | DRSC12169 | -0.4 | -0.2 | – | –
tst + CG10375 | DRSC14237 | -0.1 | 0.3 | – | –
qkr58E-1 | DRSC04709 | -0.2 | -0.7 | – | –
boi | DRSC18425 | -0.2 | -0.8 | – | –
boi | DRSC18598 | -0.2 | 0 | – | –
CG15186 | DRSC12566 | -0.4 | -0.4 | – | –
Got1 | DRSC07177 | -0.3 | -0.2 | – | –
CG31436 | DRSC14661 | -0.2 | 0 | – | –
CG15080 | DRSC06511 | 0.1 | 0.1 | – | –
CG3009 | DRSC18263 | -0.2 | -0.1 | – | –
Gdi | DRSC03330 | -0.5 | -0.9 | – | –
CG12376 | DRSC06144 | 0 | -0.6 | – | –
rush | DRSC18568 | 0.7 | 0.3 | – | –

5 entries from above, ordered by “z-score, replicate 2”, high to low.
gene | dsRNA | z-score, replicate 1 | z-score, replicate 2 | z-score, replicate 3 | z-score, replicate 4
CG13215 | DRSC06337 | -0.1 | 0.3 | – | –
CG14232 | DRSC19588 | -0.3 | 0.1 | – | –
Hmu | DRSC16705 | 0 | -0.1 | – | –
Rbp9 | DRSC00416 | -0.2 | -0.3 | – | –
Rbp9 | DRSC00779 | -0.4 | -0.6 | – | –
